This note sets out measurements from PMC12520357 (2025).

Sequences of proteins named here, by UniProt entry; tags and fusion partners are left off.
UniProt P32598: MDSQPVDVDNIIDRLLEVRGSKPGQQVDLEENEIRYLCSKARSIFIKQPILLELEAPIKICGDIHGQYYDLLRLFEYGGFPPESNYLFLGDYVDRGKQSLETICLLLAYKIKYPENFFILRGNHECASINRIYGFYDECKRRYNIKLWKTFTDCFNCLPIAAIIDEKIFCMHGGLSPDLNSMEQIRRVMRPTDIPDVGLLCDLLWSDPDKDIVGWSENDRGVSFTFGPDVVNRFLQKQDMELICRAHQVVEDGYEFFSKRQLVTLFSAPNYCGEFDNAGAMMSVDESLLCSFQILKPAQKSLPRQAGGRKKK

No constants are given. Whether binding was seen depends on the method and setting. Binding seen in cells or lysates may run through a third protein. Some entries that bind do so weakly or less than the wild type. Where a sequence is shown, tags or fusion partners need not be part of it.

For assay [1], the target named is T1, Reg1-P231S-FLAG (S. cerevisiae) (UniProt Q00816).
T1 sequence: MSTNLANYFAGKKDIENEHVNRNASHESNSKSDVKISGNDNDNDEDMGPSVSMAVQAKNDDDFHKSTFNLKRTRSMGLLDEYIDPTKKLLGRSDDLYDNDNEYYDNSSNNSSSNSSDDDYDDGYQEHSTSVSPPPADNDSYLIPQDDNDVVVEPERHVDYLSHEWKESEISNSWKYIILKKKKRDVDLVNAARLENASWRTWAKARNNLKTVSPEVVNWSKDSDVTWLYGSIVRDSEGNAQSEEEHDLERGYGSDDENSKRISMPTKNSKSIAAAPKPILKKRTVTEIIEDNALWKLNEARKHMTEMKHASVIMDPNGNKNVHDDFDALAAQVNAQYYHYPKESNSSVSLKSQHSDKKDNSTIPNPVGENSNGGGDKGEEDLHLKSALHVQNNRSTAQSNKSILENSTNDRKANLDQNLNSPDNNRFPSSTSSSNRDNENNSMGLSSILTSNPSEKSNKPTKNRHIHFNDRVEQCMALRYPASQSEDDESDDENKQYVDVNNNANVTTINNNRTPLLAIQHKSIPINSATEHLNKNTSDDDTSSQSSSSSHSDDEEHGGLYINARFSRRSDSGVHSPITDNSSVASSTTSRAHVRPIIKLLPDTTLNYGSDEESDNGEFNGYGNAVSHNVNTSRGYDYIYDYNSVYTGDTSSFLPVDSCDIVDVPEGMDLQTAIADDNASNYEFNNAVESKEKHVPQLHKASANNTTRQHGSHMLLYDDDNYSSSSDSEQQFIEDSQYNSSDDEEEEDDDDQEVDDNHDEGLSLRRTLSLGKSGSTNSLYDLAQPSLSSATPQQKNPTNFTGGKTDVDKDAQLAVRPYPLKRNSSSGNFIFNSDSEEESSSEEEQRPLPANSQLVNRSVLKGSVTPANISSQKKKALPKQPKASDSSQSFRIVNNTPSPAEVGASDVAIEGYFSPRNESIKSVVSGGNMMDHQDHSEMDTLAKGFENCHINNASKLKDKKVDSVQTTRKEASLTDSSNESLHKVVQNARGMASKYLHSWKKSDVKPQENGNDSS
The assay is described as follows: co-IP; Reg1-FLAG precipitated on anti-FLAG M2 agarose from native yeast lysates (50 mM HEPES pH 7.5, 150 mM NaCl, 0.5% Triton X-100, 1 mM DTT, 10% glycerol), 1 h at 4°C; blots with anti-FLAG, anti-GFP (Glc7, Snf1) and anti-14-3-3; steady state.

Assay [2] deals with T2, Reg1-P278Q-FLAG (S. cerevisiae) (UniProt Q00816).
T2 sequence: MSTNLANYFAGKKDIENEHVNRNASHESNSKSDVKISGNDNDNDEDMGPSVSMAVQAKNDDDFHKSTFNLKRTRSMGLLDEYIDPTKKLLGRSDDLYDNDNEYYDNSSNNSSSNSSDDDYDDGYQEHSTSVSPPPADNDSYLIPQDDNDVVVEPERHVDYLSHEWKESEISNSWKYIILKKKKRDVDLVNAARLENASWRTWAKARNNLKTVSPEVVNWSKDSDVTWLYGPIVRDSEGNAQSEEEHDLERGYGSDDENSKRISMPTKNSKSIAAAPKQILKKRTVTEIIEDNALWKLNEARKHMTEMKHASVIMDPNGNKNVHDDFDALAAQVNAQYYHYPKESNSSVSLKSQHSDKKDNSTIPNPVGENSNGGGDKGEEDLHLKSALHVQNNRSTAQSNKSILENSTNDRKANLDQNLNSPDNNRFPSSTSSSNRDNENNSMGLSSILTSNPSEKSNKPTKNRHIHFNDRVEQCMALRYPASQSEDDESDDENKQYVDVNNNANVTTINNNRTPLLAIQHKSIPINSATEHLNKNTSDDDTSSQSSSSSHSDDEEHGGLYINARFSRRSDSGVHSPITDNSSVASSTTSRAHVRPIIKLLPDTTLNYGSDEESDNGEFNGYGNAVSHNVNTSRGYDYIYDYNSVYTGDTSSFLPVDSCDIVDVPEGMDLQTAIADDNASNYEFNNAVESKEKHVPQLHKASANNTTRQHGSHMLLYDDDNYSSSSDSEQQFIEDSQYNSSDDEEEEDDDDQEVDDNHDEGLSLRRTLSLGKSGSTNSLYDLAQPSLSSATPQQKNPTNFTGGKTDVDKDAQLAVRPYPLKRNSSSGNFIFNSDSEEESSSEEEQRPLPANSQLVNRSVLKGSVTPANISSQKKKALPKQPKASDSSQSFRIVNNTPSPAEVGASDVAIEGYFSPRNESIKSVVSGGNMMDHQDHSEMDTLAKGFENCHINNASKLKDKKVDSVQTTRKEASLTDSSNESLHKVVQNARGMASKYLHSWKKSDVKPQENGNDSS
Described as above.

Consider Glc7-GFP (from UniProt P32598 1-312), for which the binding entry in assay [1] and in assay [2] was “binds” throughout.

B1: Snf1-GFP (protein, UniProt P06782 1-633)
chain: MSSNNNTNTAPANANSSHHHHHHHHHHHHHGHGGSNSTLNNPKSSLADGAHIGNYQIVKTLGEGSFGKVKLAYHTTTGQKVALKIINKKVLAKSDMQGRIEREISYLRLLRHPHIIKLYDVIKSKDEIIMVIEYAGNELFDYIVQRDKMSEQEARRFFQQIISAVEYCHRHKIVHRDLKPENLLLDEHLNVKIADFGLSNIMTDGNFLKTSCGSPNYAAPEVISGKLYAGPEVDVWSCGVILYVMLCRRLPFDDESIPVLFKNISNGVYTLPKFLSPGAAGLIKRMLIVNPLNRISIHEIMQDDWFKVDLPEYLLPPDLKPHPEEENENNDSKKDGSSPDNDEIDDNLVNILSSTMGYEKDEIYESLESSEDTPAFNEIRDAYMLIKENKSLIKDMKANKSVSDELDTFLSQSPPTFQQQSKSHQKSQVDHETAKQHARRMASAITQQRTYHQSPFMDQYKEEDSTVSILPTSLPQIHRANMLAQGSPAASKISPLVTKKSKTRWHFGIRSRSYPLDVMGEIYIALKNLGAEWAKPSEEDLWTIKLRWKYDIGNKTNTNEKIPDLMKMVIQLFQIETNNYLVDFKFDGWESSYGDDTTVSNISEDEMSTFSAYPFLHLTTKLIMELAVNSQSN
In the case of B1, the binding result in assay [1] and in assay [2] was “binds” in each case.
